{"source": "paper PMC10951066", "about": "“The self-reactive FVIII T cell repertoire in healthy individuals relies on a short set of epitopes and public clonotypes” (Frontiers in Immunology, 2024)", "molecules": {"B1": {"name": "ovalbumin: chicken ovalbumin, non-self-protein benchmark (protein, UniProt P01012 2-386, looked up)", "Ovalbumin": "GSIGAASMEFCFDVFKELKVHHANENIFYCPIAIMSALAMVYLGAKDSTRTQINKVVRFDKLPGFGDSIEAQCGTSVNVHSSLRDILNQITKPNDVYSFSLASRLYAEERYPILPEYLQCVKELYRGGLEPINFQTAADQARELINSWVESQTNGIIRNVLQPSSVDSQTAMVLVNAIVFKGLWEKAFKDEDTQAMPFRVTEQESKPVQMMYQIGLFRVASMASEKMKILELPFASGTMSMLVLLPDEVSGLEQLESIINFEKLTEWTSSNVMEERKIKVYLPRMKMEEKYNLTSVLMAMGITDVFSSSANLSGISSAESLKISQAVHAAHAEINEAGREVVGSAEAGVDAASVSEEFRADHPFLFCIKHIATNAVLFFGRCVSP"}}, "system": "CD4 T cells from healthy donors", "experiment": "TCR CDR3β bulk sequencing of sorted antigen-specific CD4 T cells", "format": "cell-based, human", "data": [{"molecule": "B1", "values": [{"measurement": "Gini-Simpson index", "setting": "T cell repertoire diversity, four donors", "value": 0.95}, {"measurement": "average number per donor of detected clonotypes", "setting": "four donors", "value": 918}, {"measurement": "total clonotypes detected", "setting": "four donors", "value": "3,672"}, {"measurement": "clonotypes covering 50% of the total repertoire", "setting": "on average per donor", "value": 33}]}]}
